Measured values as given in article PMC9985596.
Results are given in words; binding and its absence hold for the method and conditions named. In cells and extracts the contact can be indirect. Some binding calls cover weakened binding; strength is not graded here. Tags and fused reporters may be left off the sequences shown.

Sequences of proteins named here, by UniProt entry; tags and fusion partners are left off.
UniProt Q9UJX4: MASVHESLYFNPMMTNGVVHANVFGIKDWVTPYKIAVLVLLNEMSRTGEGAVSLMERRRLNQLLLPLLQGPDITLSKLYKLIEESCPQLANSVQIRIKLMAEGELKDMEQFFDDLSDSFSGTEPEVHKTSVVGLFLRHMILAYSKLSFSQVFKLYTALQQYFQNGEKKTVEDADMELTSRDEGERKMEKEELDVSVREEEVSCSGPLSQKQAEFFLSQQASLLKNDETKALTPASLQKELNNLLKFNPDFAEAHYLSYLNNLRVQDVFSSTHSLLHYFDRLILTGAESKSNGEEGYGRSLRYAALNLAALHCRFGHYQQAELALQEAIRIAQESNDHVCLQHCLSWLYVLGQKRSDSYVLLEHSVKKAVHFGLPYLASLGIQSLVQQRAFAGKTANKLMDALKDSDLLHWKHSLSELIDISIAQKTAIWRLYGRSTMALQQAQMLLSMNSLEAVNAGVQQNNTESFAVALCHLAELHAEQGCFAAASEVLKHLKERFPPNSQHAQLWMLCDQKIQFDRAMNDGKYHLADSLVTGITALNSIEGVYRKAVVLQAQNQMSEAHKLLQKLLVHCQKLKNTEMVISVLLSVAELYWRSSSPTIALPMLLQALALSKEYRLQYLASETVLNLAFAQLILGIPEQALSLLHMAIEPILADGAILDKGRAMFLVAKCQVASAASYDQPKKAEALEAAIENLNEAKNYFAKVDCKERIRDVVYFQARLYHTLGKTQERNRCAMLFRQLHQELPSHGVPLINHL
UniProt Q9H1A4: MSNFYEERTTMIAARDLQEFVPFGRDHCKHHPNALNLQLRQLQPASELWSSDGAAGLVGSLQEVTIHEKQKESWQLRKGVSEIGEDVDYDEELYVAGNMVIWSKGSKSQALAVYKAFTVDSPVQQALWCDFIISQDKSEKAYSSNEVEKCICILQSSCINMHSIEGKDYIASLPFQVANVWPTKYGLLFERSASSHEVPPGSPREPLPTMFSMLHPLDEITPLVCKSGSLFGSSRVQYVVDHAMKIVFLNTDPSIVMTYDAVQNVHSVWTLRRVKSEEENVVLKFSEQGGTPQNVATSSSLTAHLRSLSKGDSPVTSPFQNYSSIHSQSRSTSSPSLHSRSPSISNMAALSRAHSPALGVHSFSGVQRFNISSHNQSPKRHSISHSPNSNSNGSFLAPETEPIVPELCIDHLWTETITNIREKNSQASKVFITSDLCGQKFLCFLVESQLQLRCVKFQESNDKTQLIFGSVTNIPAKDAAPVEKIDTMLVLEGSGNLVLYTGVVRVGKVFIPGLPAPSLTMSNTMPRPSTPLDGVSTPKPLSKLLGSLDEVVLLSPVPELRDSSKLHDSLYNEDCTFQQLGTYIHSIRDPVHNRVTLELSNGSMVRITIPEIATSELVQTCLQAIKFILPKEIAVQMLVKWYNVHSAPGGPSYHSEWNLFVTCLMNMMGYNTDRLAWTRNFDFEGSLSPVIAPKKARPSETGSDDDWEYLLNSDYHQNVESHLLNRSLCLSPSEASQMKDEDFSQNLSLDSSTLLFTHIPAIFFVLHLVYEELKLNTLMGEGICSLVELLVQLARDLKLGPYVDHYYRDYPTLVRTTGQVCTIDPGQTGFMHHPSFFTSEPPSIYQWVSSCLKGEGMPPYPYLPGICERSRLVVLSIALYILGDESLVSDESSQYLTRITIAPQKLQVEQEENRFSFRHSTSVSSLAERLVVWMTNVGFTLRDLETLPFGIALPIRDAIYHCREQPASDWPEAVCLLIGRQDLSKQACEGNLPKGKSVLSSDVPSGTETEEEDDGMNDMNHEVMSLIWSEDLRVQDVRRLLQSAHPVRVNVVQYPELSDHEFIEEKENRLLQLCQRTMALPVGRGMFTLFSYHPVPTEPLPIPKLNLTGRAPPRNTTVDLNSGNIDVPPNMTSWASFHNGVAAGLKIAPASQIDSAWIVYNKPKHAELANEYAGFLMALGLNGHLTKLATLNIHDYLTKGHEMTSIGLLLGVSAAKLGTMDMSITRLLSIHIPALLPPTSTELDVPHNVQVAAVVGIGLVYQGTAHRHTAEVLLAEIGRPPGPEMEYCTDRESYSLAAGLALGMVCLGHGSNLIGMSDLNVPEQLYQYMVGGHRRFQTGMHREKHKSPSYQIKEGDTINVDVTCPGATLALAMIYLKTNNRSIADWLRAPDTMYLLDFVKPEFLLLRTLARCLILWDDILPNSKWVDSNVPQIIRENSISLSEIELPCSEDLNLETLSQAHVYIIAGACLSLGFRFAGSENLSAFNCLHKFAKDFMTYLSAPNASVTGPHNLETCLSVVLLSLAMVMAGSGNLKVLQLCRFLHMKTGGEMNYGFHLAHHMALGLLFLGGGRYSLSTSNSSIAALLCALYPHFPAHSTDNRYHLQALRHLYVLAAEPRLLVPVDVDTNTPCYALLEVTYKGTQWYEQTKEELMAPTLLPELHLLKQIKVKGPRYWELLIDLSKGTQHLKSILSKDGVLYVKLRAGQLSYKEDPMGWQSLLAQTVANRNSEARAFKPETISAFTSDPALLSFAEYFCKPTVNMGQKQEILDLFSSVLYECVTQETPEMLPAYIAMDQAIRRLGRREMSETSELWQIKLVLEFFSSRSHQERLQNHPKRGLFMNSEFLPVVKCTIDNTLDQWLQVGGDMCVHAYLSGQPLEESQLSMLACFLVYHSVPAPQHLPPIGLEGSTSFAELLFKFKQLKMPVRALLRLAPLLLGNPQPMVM

What was measured:
[1] = target: T1, FLAG-tagged RECQ4 wild type (human) (UniProt O94761); test: co-IP; FLAG-RECQ4 proteins on anti-FLAG M2 agarose from chromatin-bound (CB) fractions of stable RECQ4 KD HEK293 cells; western blot (Fig. 2d right, Fig. 7g)
T1 sequence: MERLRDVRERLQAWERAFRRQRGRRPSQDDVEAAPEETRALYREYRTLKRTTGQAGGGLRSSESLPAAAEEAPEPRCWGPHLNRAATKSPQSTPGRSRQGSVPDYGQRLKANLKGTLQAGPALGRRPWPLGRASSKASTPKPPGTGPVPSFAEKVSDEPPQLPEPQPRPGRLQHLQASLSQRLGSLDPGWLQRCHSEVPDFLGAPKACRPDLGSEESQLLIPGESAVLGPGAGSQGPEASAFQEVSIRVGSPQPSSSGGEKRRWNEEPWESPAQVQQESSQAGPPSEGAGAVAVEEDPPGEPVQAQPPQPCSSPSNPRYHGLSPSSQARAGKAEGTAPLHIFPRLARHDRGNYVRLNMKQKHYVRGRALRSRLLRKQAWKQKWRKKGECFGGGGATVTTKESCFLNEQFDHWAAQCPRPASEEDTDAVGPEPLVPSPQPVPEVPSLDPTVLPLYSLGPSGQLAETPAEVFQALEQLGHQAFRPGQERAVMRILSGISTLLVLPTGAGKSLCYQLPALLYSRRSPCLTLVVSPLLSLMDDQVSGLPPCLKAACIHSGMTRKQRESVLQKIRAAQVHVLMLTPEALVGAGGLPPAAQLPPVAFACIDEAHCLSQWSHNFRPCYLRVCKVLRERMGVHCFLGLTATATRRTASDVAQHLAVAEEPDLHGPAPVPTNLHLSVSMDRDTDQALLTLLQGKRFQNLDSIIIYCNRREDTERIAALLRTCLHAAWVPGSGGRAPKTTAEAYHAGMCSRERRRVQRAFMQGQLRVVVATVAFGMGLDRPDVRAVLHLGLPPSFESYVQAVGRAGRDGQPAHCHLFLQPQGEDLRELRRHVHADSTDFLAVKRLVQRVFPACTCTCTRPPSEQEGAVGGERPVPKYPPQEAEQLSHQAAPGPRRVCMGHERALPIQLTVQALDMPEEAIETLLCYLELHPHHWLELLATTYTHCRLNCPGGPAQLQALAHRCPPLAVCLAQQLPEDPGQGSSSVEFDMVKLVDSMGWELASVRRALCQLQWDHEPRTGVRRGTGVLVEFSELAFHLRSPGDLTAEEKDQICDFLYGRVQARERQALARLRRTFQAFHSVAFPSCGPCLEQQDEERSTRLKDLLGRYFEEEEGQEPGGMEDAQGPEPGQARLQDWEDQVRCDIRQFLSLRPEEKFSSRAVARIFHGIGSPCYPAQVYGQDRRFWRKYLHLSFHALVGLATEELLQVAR

[2] = target: T2, FLAG-tagged RECQ4 Q757X mutant (human) (UniProt O94761); test: as above
T2 sequence: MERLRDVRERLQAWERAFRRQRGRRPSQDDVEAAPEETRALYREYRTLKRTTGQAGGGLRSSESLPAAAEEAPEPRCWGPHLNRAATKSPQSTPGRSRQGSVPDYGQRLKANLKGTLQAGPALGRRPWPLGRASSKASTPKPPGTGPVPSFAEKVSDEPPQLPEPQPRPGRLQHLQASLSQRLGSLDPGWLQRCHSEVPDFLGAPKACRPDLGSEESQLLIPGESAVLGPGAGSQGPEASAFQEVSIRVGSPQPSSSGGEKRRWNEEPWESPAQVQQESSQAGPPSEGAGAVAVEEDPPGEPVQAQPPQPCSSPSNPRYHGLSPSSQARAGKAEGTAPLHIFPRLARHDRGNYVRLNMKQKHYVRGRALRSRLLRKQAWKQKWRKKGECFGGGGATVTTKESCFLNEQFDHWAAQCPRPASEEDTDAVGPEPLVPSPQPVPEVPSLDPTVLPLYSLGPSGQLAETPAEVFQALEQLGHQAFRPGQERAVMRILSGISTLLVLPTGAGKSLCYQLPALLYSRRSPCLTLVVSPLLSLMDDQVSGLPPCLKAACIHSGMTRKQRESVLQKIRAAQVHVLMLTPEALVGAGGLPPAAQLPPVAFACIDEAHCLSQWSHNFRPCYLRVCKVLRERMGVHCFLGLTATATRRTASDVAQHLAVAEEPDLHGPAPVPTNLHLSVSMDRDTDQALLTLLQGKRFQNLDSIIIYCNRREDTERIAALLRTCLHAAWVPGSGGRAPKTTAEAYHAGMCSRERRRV

Substance | binding [1] | binding [2]
APC5 (from UniProt Q9UJX4 1-755) | binds | binds
APC1 (from UniProt Q9H1A4 1-1944) | binds | binds
